Numbering of substitutions follows the chain as printed. For some assays here: The comparison behind a weaker result is the experiment's own reference, which may not be listed here. Tags and fusion partners may be left off the protein sequences shown.
Key:
Experiment in all cases: enzyme reaction in vitro
[1] = target: T1, KpnI D148A (UniProt P25237); details: similar to D148G, traces of cleavage; Mg2+; purified recombinant protein; only the site is given
T1 sequence: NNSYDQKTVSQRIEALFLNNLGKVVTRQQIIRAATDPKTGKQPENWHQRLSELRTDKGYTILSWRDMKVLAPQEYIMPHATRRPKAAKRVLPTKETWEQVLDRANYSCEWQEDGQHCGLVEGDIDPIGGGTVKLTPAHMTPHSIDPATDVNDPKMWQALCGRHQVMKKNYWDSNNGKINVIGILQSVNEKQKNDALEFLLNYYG

[2] = target: T2, KpnI D148G (UniProt P25237); details: only traces of cleavage, no complete linearization at 2 uM; near-complete after 12 h; Mg2+; purified recombinant protein; only the site is given
T2 sequence: T1 sequence with A137G

[3] = target: T3, KpnI Q175E (UniProt P25237); details: only traces of cleavage in large excess, no complete linearization at 2 uM; Mg2+; purified recombinant protein; only the site is given
T3 sequence: T1 sequence with A137D, Q164E

[4] = target: T4, KpnI wild-type (UniProt P25237); details: complete linearization at 1 nM enzyme; 5 mM MgCl2, 37 C, 1 h; purified recombinant protein; only the site is given
T4 sequence: T1 sequence with A137D

[5] = target: T5, KpnI D163I (UniProt P25237); details: NEB1 buffer, 37 C; more single-band product, reduced star activity; protein in a lysate after overexpression; only the site is given
T5 sequence: T1 sequence with A137D, D152I

[6] = target: T6, KpnI D163I/K165A (UniProt P25237); details: NEB1 buffer, 37 C; same specific activity as wild type, star activity no more than 1/64 of wild type; protein in a lysate after overexpression; only the site is given
T6 sequence: T1 sequence with A137D, D152I, K154A

[7] = target: T7, KpnI K165A (UniProt P25237); details: NEB1 buffer, 37 C; more single-band product, reduced star activity; protein in a lysate after overexpression; only the site is given
T7 sequence: T1 sequence with A137D, K154A

[8] = target: T8, KpnI wild-type (cell extract) (UniProt P25237); details: cell extract, NEB1 buffer, 37 C; multiple bands (star activity) at undiluted extract; protein in a lysate after overexpression; only the site is given
T8 sequence: T1 sequence with A137D

Sequence | activity on this sequence [1] | activity on this sequence [2] | activity on this sequence [3] | activity on this sequence [4] | activity on this sequence [5] | activity on this sequence [6] | activity on this sequence [7] | activity on this sequence [8]
GGTACC (double strand) [pUC18 plasmid, KpnI canonical site] | less active | less active | less active | active |  |  |  | 
GGTACC (double strand) [pUC19 plasmid, one KpnI site] |  |  |  |  | active | active | active | active

Source: patent US20080227133
